Results published in US11998640B2, “Room temperature stable oral calcitonin formulation” (PARK THERAPEUTICS, INC., priority 2016, dated 2024).
The name of at least one read-out is uncertain.

Assay: Binary mixture study: stability of rsCT with individual excipients stored at 40° C. (recovery and purity)
Format: physicochemical
Description: Binary mixtures were prepared by combining about 18 mg of rsCT with about 300 mg of each of the excipients, individually. Each binary mixture was evaluated in the presence or absence of 10% (w/w) water. Control samples included rsCT only. The mixtures were stored at 40° C., were pulled in duplicate after 7 days and 32 days, and were evaluated for recovery (assay activity relative to that of untreated and dried rsCT) and purity.

## CC(C)C[C@H](NC(=O)[C@H](CCCCN)NC(=O)CNC(=O)[C@H](CC(C)C)NC(=O)[C@@H](NC(=O)[C@@H]1CSSC[C@H](N)C(=O)N[C@@H](CO)C(=O)N[C@@H](CC(N)=O)C(=O)N[C@@H](CC(C)C)C(=O)N[C@@H](CO)C(=O)N[C@@H]([C@@H](C)O)C(=O)N1)C(C)C)C(=O)N[C@@H](CO)C(=O)N[C@@H](CCC(N)=O)C(=O)N[C@@H](CCC(=O)O)C(=O)N[C@@H](CC(C)C)C(=O)N[C@@H](Cc1c[nH]cn1)C(=O)N[C@@H](CCCCN)C(=O)N[C@@H](CC(C)C)C(=O)N[C@@H](CCC(N)=O)C(=O)N[C@H](C(=O)N[C@@H](Cc1ccc(O)cc1)C(=O)N1CCC[C@H]1C(=O)N[C@@H](CCCNC(=N)N)C(=O)N[C@H](C(=O)N[C@@H](CC(N)=O)C(=O)N[C@H](C(=O)NCC(=O)N[C@@H](CO)C(=O)NCC(=O)N[C@H](C(=O)N1CCC[C@H]1C(N)=O)[C@@H](C)O)[C@@H](C)O)[C@@H](C)O)[C@@H](C)O [rsCT, salmon calcitonin]
10% (v/w) Water Added, T = 7 days at 40° C.
  Average Recovery: 85.6%
10% (v/w) Water Added, T = 32 days at 40° C.
  Average Recovery: 83.8%
Untreated Powders, T = 7 days at 40° C., assay activity relative to untreated and dried rsCT
  Average Recovery: 99.3%
Untreated Powders, T = 32 days at 40° C.
  Average Recovery: 97.3%
